The list shows a part of the results.
Experiments:
Assay in all cases: log2 fold change, soluble protein after heating vs DMSO (PISA); higher = thermal stabilisation; K562 cells, 10 uM, 30 min; active = over 0.2 and 3.5 SD of the protein, either way, in both replicates (recomputed)
[1] = compound: Cc1ccc(NC(=O)c2ccc(CN3CC[C@H](N(C)C)C3)c(C(F)(F)F)c2)cc1Nc1nccc(-c2cncnc2)n1 [bafetinib]
How it was run: (§1)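 K562 cells (2×10^6 cells/mL) were treated with 10 μM compound for 30 min, and aliquots were heated for 3 min over 48°C-58°C. Pooled aliquots were extracted in PBS with 0.5% NP-40 at 4°C, and the supernatant after 21,000xg for 90 min was measured by TMTpro 16plex LC-MS/MS with channel sums equalised. Reported thermal stability, relative to control samples and from duplicates, is a log2 fold change.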

Protein sequences, listed by entry. Tags and fused reporters are not part of them. Lines headed by an entry give the natural chain unless they say otherwise; changes in a name come on top.
UniProt Q9H0G5: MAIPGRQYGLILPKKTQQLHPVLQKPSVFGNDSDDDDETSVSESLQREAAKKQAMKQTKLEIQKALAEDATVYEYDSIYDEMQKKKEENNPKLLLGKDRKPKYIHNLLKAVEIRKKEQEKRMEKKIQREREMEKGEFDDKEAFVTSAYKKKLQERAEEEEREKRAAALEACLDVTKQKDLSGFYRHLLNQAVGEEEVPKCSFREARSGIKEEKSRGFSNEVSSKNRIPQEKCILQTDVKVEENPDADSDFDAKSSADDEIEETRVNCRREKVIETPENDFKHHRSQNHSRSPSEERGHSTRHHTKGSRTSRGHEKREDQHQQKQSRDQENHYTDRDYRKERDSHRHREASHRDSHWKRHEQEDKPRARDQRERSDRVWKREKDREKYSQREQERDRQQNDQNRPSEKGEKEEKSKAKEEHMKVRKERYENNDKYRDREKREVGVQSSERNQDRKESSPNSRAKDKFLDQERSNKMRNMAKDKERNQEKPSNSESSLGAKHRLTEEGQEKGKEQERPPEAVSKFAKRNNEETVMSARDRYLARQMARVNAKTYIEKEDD
UniProt Q92621: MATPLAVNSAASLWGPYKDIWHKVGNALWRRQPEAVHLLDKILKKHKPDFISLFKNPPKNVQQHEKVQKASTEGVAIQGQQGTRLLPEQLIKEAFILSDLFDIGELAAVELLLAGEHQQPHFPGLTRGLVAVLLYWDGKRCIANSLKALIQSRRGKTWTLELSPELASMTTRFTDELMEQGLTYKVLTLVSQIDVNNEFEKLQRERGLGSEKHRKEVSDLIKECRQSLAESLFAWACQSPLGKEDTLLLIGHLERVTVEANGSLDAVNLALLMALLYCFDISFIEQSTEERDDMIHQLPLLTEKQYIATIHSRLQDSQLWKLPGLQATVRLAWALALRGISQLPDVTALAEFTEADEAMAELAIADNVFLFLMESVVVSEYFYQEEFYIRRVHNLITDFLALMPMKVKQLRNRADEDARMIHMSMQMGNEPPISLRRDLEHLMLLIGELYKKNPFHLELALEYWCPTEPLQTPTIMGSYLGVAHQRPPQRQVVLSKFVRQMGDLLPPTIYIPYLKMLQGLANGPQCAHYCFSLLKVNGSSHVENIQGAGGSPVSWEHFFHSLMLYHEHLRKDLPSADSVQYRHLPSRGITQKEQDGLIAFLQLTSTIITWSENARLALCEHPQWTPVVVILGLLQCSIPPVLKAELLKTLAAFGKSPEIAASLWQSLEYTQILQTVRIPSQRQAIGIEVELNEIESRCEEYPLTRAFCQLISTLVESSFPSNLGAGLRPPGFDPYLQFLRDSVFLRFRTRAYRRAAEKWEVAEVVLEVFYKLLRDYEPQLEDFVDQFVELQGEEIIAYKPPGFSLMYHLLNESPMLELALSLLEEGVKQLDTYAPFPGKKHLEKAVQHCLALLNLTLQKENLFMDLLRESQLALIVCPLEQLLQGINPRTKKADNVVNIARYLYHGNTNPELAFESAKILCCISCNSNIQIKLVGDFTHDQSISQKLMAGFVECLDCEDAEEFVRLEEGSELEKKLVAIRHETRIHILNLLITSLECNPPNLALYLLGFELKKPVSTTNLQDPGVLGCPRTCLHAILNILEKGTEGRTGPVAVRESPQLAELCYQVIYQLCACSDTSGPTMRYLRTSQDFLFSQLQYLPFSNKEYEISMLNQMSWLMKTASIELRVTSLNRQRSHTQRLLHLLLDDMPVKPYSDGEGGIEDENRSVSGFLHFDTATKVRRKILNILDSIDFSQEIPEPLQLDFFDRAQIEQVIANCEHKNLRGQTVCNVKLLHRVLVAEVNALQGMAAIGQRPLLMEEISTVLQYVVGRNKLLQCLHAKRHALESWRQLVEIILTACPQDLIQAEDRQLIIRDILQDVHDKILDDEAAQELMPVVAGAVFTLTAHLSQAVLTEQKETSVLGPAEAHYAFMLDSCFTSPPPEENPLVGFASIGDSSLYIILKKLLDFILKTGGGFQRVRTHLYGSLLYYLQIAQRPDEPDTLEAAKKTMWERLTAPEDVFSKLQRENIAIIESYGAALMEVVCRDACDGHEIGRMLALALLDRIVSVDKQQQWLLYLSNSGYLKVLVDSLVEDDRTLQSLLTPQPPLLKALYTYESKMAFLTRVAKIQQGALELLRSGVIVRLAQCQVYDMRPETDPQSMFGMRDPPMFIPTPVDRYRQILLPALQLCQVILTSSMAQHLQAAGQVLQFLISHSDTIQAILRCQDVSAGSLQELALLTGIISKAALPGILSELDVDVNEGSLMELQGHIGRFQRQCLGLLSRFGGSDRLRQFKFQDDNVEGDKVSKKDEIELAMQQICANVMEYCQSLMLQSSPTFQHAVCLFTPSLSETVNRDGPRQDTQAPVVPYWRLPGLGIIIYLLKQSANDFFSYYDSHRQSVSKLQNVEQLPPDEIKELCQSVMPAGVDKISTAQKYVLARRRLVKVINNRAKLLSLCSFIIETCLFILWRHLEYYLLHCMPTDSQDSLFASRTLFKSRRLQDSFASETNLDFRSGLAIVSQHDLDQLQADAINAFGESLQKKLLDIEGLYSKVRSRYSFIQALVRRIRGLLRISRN
UniProt Q9UQ80: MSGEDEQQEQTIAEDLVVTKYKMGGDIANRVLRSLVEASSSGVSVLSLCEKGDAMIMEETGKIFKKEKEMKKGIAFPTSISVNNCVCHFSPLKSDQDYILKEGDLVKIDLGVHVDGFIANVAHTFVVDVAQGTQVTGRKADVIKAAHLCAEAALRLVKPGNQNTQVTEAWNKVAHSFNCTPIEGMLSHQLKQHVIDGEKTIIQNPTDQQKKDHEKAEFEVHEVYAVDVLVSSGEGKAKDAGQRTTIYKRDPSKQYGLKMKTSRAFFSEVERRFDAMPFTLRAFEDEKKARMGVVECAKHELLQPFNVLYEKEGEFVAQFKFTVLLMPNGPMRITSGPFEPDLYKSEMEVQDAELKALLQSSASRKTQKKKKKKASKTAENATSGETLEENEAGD
UniProt P04181: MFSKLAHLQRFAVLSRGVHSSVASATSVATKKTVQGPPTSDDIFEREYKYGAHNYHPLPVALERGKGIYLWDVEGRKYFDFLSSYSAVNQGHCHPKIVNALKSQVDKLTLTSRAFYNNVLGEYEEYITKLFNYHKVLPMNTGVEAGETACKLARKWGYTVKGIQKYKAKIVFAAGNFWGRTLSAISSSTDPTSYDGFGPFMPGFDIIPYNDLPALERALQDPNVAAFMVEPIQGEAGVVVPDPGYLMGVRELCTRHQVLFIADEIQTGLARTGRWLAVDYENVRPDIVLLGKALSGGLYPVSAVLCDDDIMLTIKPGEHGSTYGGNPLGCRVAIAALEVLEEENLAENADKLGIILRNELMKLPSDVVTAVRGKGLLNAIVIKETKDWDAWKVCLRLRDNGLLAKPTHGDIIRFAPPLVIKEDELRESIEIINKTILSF
UniProt Q96CV9, whole entry, looked up: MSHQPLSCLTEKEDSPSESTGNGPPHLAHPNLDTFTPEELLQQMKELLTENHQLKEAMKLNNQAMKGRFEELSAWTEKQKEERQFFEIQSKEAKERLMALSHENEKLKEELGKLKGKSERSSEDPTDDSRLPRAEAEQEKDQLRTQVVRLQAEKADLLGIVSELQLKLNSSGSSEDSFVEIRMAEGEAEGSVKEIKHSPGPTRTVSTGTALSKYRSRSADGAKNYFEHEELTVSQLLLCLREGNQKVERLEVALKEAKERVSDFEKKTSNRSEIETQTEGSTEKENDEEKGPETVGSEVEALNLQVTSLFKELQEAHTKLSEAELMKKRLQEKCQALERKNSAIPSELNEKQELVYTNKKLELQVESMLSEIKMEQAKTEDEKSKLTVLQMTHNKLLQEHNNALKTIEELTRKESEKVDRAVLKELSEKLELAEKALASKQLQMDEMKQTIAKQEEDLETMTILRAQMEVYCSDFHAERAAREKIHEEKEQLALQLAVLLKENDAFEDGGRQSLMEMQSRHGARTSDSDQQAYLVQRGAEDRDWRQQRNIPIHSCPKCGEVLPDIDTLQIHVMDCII
UniProt Q9Y530: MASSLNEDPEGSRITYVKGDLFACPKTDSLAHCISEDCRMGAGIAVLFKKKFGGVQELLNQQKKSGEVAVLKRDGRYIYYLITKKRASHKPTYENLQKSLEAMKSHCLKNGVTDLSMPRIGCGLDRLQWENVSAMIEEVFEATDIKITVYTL
UniProt O75694: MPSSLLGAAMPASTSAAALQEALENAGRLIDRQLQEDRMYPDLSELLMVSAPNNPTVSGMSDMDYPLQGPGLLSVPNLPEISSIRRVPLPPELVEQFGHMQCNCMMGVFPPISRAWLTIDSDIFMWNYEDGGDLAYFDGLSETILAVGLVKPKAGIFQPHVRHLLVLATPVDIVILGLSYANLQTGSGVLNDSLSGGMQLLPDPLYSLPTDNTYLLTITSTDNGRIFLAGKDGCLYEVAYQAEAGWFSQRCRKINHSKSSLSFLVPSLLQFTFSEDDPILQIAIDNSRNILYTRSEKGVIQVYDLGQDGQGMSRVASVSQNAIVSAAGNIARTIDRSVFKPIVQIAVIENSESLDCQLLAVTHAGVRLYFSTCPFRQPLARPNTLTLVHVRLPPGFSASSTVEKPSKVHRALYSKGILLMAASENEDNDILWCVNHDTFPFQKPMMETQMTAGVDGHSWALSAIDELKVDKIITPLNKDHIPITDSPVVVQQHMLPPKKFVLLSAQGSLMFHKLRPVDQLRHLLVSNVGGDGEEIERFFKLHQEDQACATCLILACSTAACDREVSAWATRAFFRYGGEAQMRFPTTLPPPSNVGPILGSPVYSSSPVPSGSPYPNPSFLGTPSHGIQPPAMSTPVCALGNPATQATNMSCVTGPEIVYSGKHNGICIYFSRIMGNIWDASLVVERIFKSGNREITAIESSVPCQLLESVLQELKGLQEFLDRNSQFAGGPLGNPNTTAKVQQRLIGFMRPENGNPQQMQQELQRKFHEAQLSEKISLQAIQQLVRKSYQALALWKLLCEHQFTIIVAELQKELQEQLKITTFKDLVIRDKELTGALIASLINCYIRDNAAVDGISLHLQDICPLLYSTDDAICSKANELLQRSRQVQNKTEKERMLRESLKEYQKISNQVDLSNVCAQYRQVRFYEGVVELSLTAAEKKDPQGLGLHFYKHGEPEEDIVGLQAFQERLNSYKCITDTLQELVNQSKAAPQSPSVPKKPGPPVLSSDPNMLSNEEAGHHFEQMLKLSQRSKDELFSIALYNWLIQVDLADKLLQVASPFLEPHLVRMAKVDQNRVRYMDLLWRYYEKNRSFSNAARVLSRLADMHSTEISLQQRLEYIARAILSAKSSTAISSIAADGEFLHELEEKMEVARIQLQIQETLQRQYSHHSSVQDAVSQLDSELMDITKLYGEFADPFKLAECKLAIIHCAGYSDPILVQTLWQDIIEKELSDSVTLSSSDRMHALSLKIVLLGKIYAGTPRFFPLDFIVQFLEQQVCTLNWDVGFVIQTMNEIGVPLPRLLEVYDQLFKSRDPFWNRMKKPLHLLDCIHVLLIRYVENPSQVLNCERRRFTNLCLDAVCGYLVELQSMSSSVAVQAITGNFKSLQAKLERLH
UniProt P20774: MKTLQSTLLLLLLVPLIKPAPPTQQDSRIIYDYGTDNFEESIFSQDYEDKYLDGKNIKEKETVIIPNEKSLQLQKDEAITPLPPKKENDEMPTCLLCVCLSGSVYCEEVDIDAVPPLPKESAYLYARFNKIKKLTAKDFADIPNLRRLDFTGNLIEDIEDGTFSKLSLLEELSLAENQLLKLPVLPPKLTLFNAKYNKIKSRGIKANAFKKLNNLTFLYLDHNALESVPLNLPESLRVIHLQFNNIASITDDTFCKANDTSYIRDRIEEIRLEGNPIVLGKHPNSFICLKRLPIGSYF
UniProt Q8WZ82: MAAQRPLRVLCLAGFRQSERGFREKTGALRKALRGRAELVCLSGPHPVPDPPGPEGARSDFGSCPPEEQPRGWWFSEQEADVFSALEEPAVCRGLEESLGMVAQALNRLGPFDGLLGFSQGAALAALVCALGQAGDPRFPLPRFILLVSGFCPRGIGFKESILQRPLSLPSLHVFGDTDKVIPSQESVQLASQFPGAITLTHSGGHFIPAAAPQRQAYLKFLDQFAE
UniProt Q969T7: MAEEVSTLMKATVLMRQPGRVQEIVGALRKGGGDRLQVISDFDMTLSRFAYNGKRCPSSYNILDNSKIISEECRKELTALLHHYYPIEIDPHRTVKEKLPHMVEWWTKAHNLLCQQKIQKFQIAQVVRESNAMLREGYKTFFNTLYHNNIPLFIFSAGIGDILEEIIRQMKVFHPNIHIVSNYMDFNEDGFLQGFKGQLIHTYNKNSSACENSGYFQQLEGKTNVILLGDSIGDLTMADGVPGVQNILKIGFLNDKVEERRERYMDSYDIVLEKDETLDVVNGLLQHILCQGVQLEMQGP
UniProt Q9H1E3: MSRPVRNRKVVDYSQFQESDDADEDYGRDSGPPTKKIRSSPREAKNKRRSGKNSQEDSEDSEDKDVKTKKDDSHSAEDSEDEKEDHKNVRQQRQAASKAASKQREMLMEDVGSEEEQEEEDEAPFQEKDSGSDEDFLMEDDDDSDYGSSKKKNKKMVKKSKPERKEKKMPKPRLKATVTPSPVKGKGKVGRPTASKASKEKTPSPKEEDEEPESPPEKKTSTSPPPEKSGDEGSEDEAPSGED

[2] = compound: Cc1cccc(CC(=O)N2CCc3c2ccc(-c2cn(C)c4ncnc(N)c24)c3F)n1
How it was run: as §1

[3] = compound: Cc1cn(-c2cc(NC(=O)c3ccc(C)c(Nc4nccc(-c5cccnc5)n4)c3)cc(C(F)(F)F)c2)cn1 [nilotinib]
How it was run: as §1

[4] = compound: Cc1nc(Nc2n[nH]c3c2CN(C(=O)N[C@H](CN(C)C)c2ccccc2)C3(C)C)c2sccc2n1
How it was run: as §1

[5] = compound: Cc1nc(Nc2ncc(C(=O)Nc3c(C)cccc3Cl)s2)cc(N2CCN(CCO)CC2)n1 [dasatinib]
How it was run: as §1

[6] = compound: Cc1ncc(-c2ccnc(Nc3ccc(S(C)(=O)=O)cc3)n2)n1C(C)C
How it was run: as §1

[7] = compound: Cn1cc(-c2ccc3c(c2)CCN3C(=O)Cc2cccc(C(F)(F)F)c2)c2c(N)ncnc21
How it was run: as §1

[8] = compound: Cn1cc(-c2ccc3nnc(C(F)(F)c4ccc5ncccc5c4)n3n2)cn1
How it was run: as §1

[9] = compound: Cn1cncc1[C@@](N)(c1ccc(Cl)cc1)c1ccc2c(c1)c(-c1cccc(Cl)c1)cc(=O)n2C [tipifarnib]
How it was run: as §1

[10] = compound: FC(F)(F)c1ccc(/C=C/c2nc(COc3ccc(CCCCn4ccnn4)cc3)co2)cc1 [mubritinib]
How it was run: as §1

[11] = compound: NC(=O)Nc1cc(-c2cccc(F)c2)sc1C(=O)N[C@H]1CCCNC1
How it was run: as §1

[12] = compound: NC(=O)c1cnc(N[C@@H]2CCCC[C@@H]2N)nc1Nc1cccc(-n2nccn2)c1
How it was run: as §1

[13] = compound: NC1(c2ccc(-c3nc4ccn5c(=O)[nH]nc5c4cc3-c3ccccc3)cc2)CCC1
How it was run: as §1

[14] = compound: NCC(=O)Nc1ccc(-n2nc(C(F)(F)F)cc2-c2ccc3c(ccc4ccccc43)c2)cc1
How it was run: as §1

[15] = compound: Nc1ccccc1NC(=O)c1ccc(CNC(=O)OCc2cccnc2)cc1 [entinostat]
How it was run: as §1

[16] = compound: O=C(CCCCCCC(=O)Nc1ccccc1)NO [vorinostat]
How it was run: as §1

[17] = compound: O=C(CCCCCCNC(=O)c1cnc(N(c2ccccc2)c2ccccc2Cl)nc1)NO [citarinostat]
How it was run: as §1

[18] = compound: O=C(O)c1ccc2c(c1)nc(Nc1cccc(Cl)c1)c1ccncc12 [silmitasertib]
How it was run: as §1

[19] = compound: O=C1NC(=O)C(c2cnc3ccccn23)=C1c1cn2c3c(cc(F)cc13)CN(C(=O)N1CCCCC1)CC2
How it was run: as §1

[20] = compound: c1cc(OCCN2CCCCC2)cc(-c2n[nH]c3ccc(-c4nnc[nH]4)cc23)c1
How it was run: as §1

Row | Target | log2 fold change [1] | log2 fold change [2] | log2 fold change [3] | log2 fold change [4] | log2 fold change [5] | log2 fold change [6] | log2 fold change [7] | log2 fold change [8] | log2 fold change [9] | log2 fold change [10] | log2 fold change [11] | log2 fold change [12] | log2 fold change [13] | log2 fold change [14] | log2 fold change [15] | log2 fold change [16] | log2 fold change [17] | log2 fold change [18] | log2 fold change [19] | log2 fold change [20]
1 | NSRP1 (UniProt Q9H0G5) | inactive: -0.15 | inactive: -0.008 | inactive: 0.033 | inactive: -0.255 | inactive: 0.089 | inactive: -0.108 | inactive: -0.084 | inactive: -0.1 | inactive: 0.108 | inactive: -0.069 | inactive: 0.064 | inactive: 0.071 | inactive: 0.149 | inactive: 0.016 | inactive: -0.037 | inactive: 0.002 | inactive: -0.044 | inactive: 0.072 | inactive: 0.085 | inactive: -0.164
2 | NUP205 (UniProt Q92621) | inactive: -0.052 | inactive: 0 | inactive: -0.042 | inactive: -0.025 | inactive: -0.133 | inactive: -0.004 | inactive: -0.005 | inactive: -0.052 | inactive: -0.072 | inactive: 0.017 | inactive: -0.042 | inactive: -0.023 | inactive: -0.075 | inactive: -0.1 | inactive: 0.017 | inactive: 0.041 | inactive: 0.101 | inactive: 0.058 | inactive: -0.073 | inactive: -0.069
3 | PA2G4 (UniProt Q9UQ80) | inactive: 0.094 | inactive: 0.022 | inactive: -0.018 | inactive: 0.088 | inactive: -0.046 | inactive: 0.029 | inactive: 0.062 | inactive: -0.018 | inactive: -0.061 | inactive: 0.038 | inactive: 0 | inactive: -0.011 | inactive: -0.022 | inactive: -0.034 | inactive: 0.011 | inactive: 0.02 | inactive: 0.035 | inactive: -0.038 | inactive: 0.191 | inactive: -0.053
4 | OAT (UniProt P04181) | inactive: -0.038 | inactive: -0.018 | inactive: 0.036 | inactive: -0.021 | inactive: -0.109 | inactive: -0.073 | inactive: 0.026 | inactive: 0.061 | inactive: -0.004 | inactive: 0.002 | inactive: -0.051 | inactive: -0.076 | inactive: -0.235 | inactive: -0.058 | inactive: 0.029 | inactive: 0.129 | inactive: 0.131 | inactive: -0.036 | inactive: -0.031 | inactive: 0.006
5 | OGFOD2 (UniProt Q6N063) | inactive: 0.009 | inactive: 0.171 | inactive: 0.004 | inactive: -0.007 | inactive: -0.04 | inactive: -0.023 | inactive: -0.011 | inactive: 0.132 |  | inactive: 0.092 |  | inactive: 0.005 | inactive: -0.151 | inactive: -0.012 |  | inactive: -0.313 | inactive: 0.036 | inactive: 0.097 | inactive: -0.073 | inactive: -0.012
6 | OPTN (UniProt Q96CV9) | inactive: 0.069 | inactive: -0.09 | inactive: -0.048 | inactive: -0.018 | inactive: -0.007 | inactive: -0.125 | inactive: -0.018 | inactive: -0.074 | inactive: 0.083 | inactive: -0.043 | inactive: 0.01 | inactive: -0.178 | inactive: 0.113 | inactive: -0.021 | inactive: 0.102 | inactive: -0.073 |  | inactive: 0.331 | inactive: 0.256 | 
7 | OARD1 (UniProt Q9Y530) | inactive: 0.058 |  | inactive: 0.004 | inactive: -0.149 | inactive: -0.091 | inactive: 0.021 | inactive: 0.018 | inactive: -0.038 | inactive: -0.132 | inactive: 0.026 | inactive: -0.056 | inactive: 0.002 | inactive: -0.079 | inactive: -0.054 | inactive: 0.066 |  | inactive: 0.136 | inactive: -0.014 | inactive: -0.005 | inactive: 0.021
8 | NUP155 (UniProt O75694) | inactive: -0.005 | inactive: 0.107 | inactive: -0.007 | inactive: -0.005 | inactive: -0.152 | inactive: 0.006 | inactive: 0.094 | inactive: 0.025 | inactive: -0.05 | inactive: 0.11 | inactive: 0.003 | inactive: -0.015 | inactive: -0.198 | inactive: -0.049 | inactive: 0.048 | inactive: 0.129 | inactive: 0.098 | inactive: -0.032 | inactive: -0.009 | inactive: 0.004
9 | OGN (UniProt P20774) | inactive: -0.029 |  | inactive: 0.032 | inactive: 0 | inactive: -0.099 | inactive: 0.173 | inactive: 0.228 | inactive: 0.14 | inactive: 0.087 | inactive: -0.1 | inactive: -0.066 | inactive: -0.151 | inactive: -0.054 | inactive: 0.084 | inactive: -0.043 |  | inactive: 0.075 | inactive: 0.125 | inactive: 0.096 | inactive: 0.049
10 | OVCA2 (UniProt Q8WZ82) | inactive: 0.171 | inactive: 0.039 | inactive: 0.026 | inactive: -0.326 |  | inactive: -0.163 |  | inactive: -0.003 | inactive: -0.059 | inactive: -0.231 |  | inactive: -0.067 | inactive: 0.03 |  |  | inactive: 0.08 | inactive: -0.085 | inactive: 0.206 |  | inactive: 0.08
11 | NT5C3B (UniProt Q969T7) | inactive: -0.007 | inactive: 0.01 | inactive: 0.02 | inactive: 0.126 | inactive: -0.022 | inactive: 0 | inactive: 0.041 | inactive: 0.208 | inactive: -0.043 | inactive: 0.16 | inactive: -0.077 | inactive: -0.038 | inactive: -0.119 | inactive: -0.161 | inactive: 0.121 | inactive: 0 |  | inactive: 0.049 |  | 
12 | OCIAD1 (UniProt D6RDK6) | inactive: 0.044 | inactive: -0.127 |  |  | inactive: 0.044 |  | inactive: -0.113 | inactive: 0.095 | inactive: 0.198 | inactive: 0.016 | inactive: -0.157 | inactive: -0.302 | inactive: -0.27 | inactive: -0.247 | inactive: -0.049 | inactive: 0.006 | inactive: -0.141 | inactive: 0.249 | inactive: 0.068 | inactive: -0.235
13 | NUCKS1 (UniProt Q9H1E3) | inactive: -0.114 | inactive: -0.128 | inactive: -0.028 | inactive: -0.13 | inactive: 0.037 | inactive: 0.169 | inactive: 0.005 | inactive: 0.055 | inactive: 0.059 | inactive: 0.034 | active: -0.405 | inactive: 0.035 | inactive: 0.014 | inactive: 0.04 | inactive: -0.01 | inactive: -0.08 | inactive: -0.022 | inactive: -0.008 | inactive: -0.044 | inactive: 0.079

A second format for some results above.
Row,Target,log2 fold change [1],log2 fold change [2],log2 fold change [3],log2 fold change [4],log2 fold change [5],log2 fold change [6],log2 fold change [7],log2 fold change [8],log2 fold change [9],log2 fold change [10],log2 fold change [11],log2 fold change [12],log2 fold change [13],log2 fold change [14],log2 fold change [15],log2 fold change [16],log2 fold change [17],log2 fold change [18],log2 fold change [19],log2 fold change [20]
7,OARD1 (UniProt Q9Y530),inactive: 0.058,,inactive: 0.004,inactive: -0.149,inactive: -0.091,inactive: 0.021,inactive: 0.018,inactive: -0.038,inactive: -0.132,inactive: 0.026,inactive: -0.056,inactive: 0.002,inactive: -0.079,inactive: -0.054,inactive: 0.066,,inactive: 0.136,inactive: -0.014,inactive: -0.005,inactive: 0.021
8,NUP155 (UniProt O75694),inactive: -0.005,inactive: 0.107,inactive: -0.007,inactive: -0.005,inactive: -0.152,inactive: 0.006,inactive: 0.094,inactive: 0.025,inactive: -0.05,inactive: 0.11,inactive: 0.003,inactive: -0.015,inactive: -0.198,inactive: -0.049,inactive: 0.048,inactive: 0.129,inactive: 0.098,inactive: -0.032,inactive: -0.009,inactive: 0.004
9,OGN (UniProt P20774),inactive: -0.029,,inactive: 0.032,inactive: 0,inactive: -0.099,inactive: 0.173,inactive: 0.228,inactive: 0.14,inactive: 0.087,inactive: -0.1,inactive: -0.066,inactive: -0.151,inactive: -0.054,inactive: 0.084,inactive: -0.043,,inactive: 0.075,inactive: 0.125,inactive: 0.096,inactive: 0.049

Reference: the supplement of paper PMC10849652
